Data published in article PMC13532744.
These are yes or no findings as the source states them, for the method shown. Binding calls can cover weak binding; strength is not graded here. Where a sequence is shown, tags or fusion partners need not be part of it.

Tests used:
[1] = target: 6xHis-caspase-4^C254A (human); test: cross-linking; BS3-crosslinked gel bands of caspase-4^C254A, 6xHis-UBXN1 and K63-Ub4 digested with trypsin; crosslinked peptides identified by UPLC-MS/MS; both purified
[2] = target: 6xHis-caspase-4^C254A (human); test: cross-linking; combinations of caspase-4^C254A, 6xHis-UBXN1 and K63-Ub4 (10 μM each) at room temperature 2 h, then BS3 2.5 mM on ice 1 h; SDS-PAGE, Coomassie blue and immunoblot; both purified

B1: 6xHis-UBXN1 (protein, UniProt Q04323 1-297)
chain: MAELTALESLIEMGFPRGRAEKALALTGNQGIEAAMDWLMEHEDDPDVDEPLETPLGHILGREPTSSEQGGLEGSGSAAGEGKPALSEEERQEQTKRMLELVAQKQREREEREEREALERERQRRRQGQELSAARQRLQEDEMRRAAEERRREKAEELAARQRVREKIERDKAERAKKYGGSVGSQPPPVAPEPGPVPSSPSQEPPTKREYDQCRIQVRLPDGTSLTQTFRAREQLAAVRLYVELHRGEELGGGQDPVQLLSGFPRRAFSEADMERPLQELGLVPSAVLIVAKKCPS
Q: With B1 as the binder, how does the binding [1] read?
A: The binding was “binds”.

Q: And the binding [2]?
A: The binding was “binds weakly”.
